Source: article PMC12003892
No constants are given. Whether binding was seen depends on the method and setting. Binding calls can cover weak binding; strength is not graded here. Tags and fused reporters may be left off the sequences shown.

Molecular target: T1, MTG3^FLAG (C-terminally FLAG-tagged MTG3) (human) (UniProt Q8NC60)
T1 sequence: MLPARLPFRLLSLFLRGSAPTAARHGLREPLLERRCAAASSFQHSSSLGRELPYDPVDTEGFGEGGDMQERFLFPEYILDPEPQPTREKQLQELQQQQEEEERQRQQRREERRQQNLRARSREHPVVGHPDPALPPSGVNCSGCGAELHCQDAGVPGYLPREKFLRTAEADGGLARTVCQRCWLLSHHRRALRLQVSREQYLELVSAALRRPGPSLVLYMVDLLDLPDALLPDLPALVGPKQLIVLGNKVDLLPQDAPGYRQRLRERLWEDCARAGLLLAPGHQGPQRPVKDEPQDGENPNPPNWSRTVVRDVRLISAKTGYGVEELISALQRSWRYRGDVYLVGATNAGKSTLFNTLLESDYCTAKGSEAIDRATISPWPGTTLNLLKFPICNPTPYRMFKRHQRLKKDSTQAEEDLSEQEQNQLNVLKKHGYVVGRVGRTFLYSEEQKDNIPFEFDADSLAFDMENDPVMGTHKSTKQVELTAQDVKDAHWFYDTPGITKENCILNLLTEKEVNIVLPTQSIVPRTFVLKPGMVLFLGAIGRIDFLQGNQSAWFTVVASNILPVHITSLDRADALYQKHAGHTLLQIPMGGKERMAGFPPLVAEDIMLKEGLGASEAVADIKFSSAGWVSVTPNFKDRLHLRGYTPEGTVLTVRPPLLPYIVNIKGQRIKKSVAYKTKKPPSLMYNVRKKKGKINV
Test: cryo-EM structure; native mtSSU complexes from lysed mitoplasts isolated by FLAG-immunoprecipitation of MTG3^FLAG, eluate crosslinked with 0.15% glutaraldehyde; single-particle cryo-EM, states A-G

Row | binding | Substance
1 | binds | METTL15 (human (endogenous in HEK293)) (enzyme)
2 | binds | uS11m (human (endogenous in HEK293))
